Data on 31 compounds can be found in PubChem BioAssay AID256 (DTP/NCI, 2004).

This experiment deals with CD2F1 mice, L1210 leukemia ip, survival T/C. As to the kind of experiment: NCI In Vivo Anticancer Drug Screen. Data for tumor model L1210 Leukemia (intraperitoneal) in CD2F1 (CDF1) mice. To be noted: higher T/C = longer survival. Put shortly:
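Each value reflects a quotient of treated over vehicle control outcomes in mice with a transplanted tumor.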

The mark [1] stands for this setting: T/C endpoint: mean survival time, dose: 100.0 mg/kg/injection, schedule: Q04DX003 (ip), vehicle: saline.
Setting [2] is: T/C endpoint: mean survival time, dose: 200.0 mg/kg/injection, schedule: Q04DX003 (ip), vehicle: saline.
Where [3] appears, read: T/C endpoint: mean survival time, dose: 400.0 mg/kg/injection, schedule: Q04DX003 (ip), vehicle: saline.
Where [4] appears, read: T/C endpoint: mean survival time, dose: 400.0 mg/kg/injection, schedule: Q01DX001 (ip), vehicle: saline with Tween-80.
Where [5] appears, read: T/C endpoint: mean survival time, dose: 100.0 mg/kg/injection, schedule: Q01DX009 (ip), vehicle: saline with Tween-80.
Where [6] appears, read: T/C endpoint: mean survival time, dose: 200.0 mg/kg/injection, schedule: Q04DX003 (ip), vehicle: saline with Tween-80.
The mark [7] stands for this setting: T/C endpoint: mean survival time, dose: 400.0 mg/kg/injection, schedule: Q04DX003 (ip), vehicle: saline with Tween-80.
Setting [8] is: T/C endpoint: mean survival time, dose: 400.0 mg/kg/injection, schedule: Q01DX009 (ip), vehicle: saline with Tween-80.
[9] abbreviates: T/C endpoint: mean survival time, dose: 300.0 mg/kg/injection, schedule: Q01DX001 (ip), vehicle: saline.
Where [10] appears, read: T/C endpoint: mean survival time, dose: 200.0 mg/kg/injection, schedule: Q01DX005 (ip), vehicle: water.

SMILES strings stand for the structures. The list shows only some results of the screen, not a fair sample: it gathers tests that were run many times, whatever their T/C, doses with no T/C, and many T/C values between a quarter and a half above the control. Other doses and runs of a compound stand elsewhere. T/C is the treated group as % of the vehicle group. Some entries give survivors of the animals treated and no T/C: the source holds a T/C of zero for them, seemingly a mark for toxic or unscored doses. Some doses without a T/C left all or most animals alive at the check, yet need not have been tolerated: the source hardly ever lists a survival T/C far under the control, and the zero likely stands for such cases as well. Survivors were counted at the toxicity check, usually on the fifth day, unless a day is given; later deaths do not show. Schedule codes are those of the source, taken here to give the interval after Q, in days (D) or hours (H), and the number of doses after X. Marks such as (2×) say how often a value occurs here. Some entries were tested several times; the results are listed from low to high. For survival time, this PubChem deposit counts one and a half times the control or more as active, and values a quarter to a half above the control carry no call in these data; other NCI protocols may use other cut-offs. Some T/C values are followed by the survivors on the day toxicity was checked, most often the fifth; without a count, all were alive then.

For the compound `C[N+](C)(C)CCOC(=O)CCC(=O)OCC[N+](C)(C)C`, the survivor count (T/C endpoint: mean survival time, dose: 5.0 mg/kg/injection, schedule: Q04DX003 (ip), vehicle: saline) is 2 of 6; the survivor count (T/C endpoint: mean survival time, dose: 10.0 mg/kg/injection, schedule: Q04DX003 (ip), vehicle: saline) is 1 of 6; the survivor count (T/C endpoint: mean survival time, dose: 20.0 mg/kg/injection, schedule: Q04DX003 (ip), vehicle: saline) is 0 of 6; the survivor count (T/C endpoint: mean survival time, dose: 25.0 mg/kg/injection, schedule: Q04DX003 (ip), vehicle: saline) was 5 of 6; the survivor count under setting [1] is reported as 0 of 6; the survivor count under setting [2] is given as 0 of 6. The survivor count under setting [3] is recorded as 0 of 6.
Take `NC1=NC(c2ccccc2)N(c2ccc(Cl)cc2)C(N)=N1` (stereo not drawn): under setting [4], the survivor count is 2 of 6.
Regarding `CC1C(c2ccccc2)OP(=O)(N(CCCl)CCCl)N1C` (stereo not drawn), the survivor count (T/C endpoint: mean survival time, dose: 25.0 mg/kg/injection, schedule: Q01DX009 (ip), vehicle: water) is 4 of 6; the survivor count (T/C endpoint: mean survival time, dose: 50.0 mg/kg/injection, schedule: Q01DX009 (ip), vehicle: water) is on record as 0 of 6; the survivor count (T/C endpoint: mean survival time, dose: 100.0 mg/kg/injection, schedule: Q01DX009 (ip), vehicle: water) is given as 0 of 6; the survivor count (T/C endpoint: mean survival time, dose: 200.0 mg/kg/injection, schedule: Q01DX009 (ip), vehicle: water) is 0 of 6 (2×); the survivor count (T/C endpoint: mean survival time, dose: 250.0 mg/kg/injection, schedule: Q01DX001 (ip), vehicle: other) was 0 of 6; the survivor count (T/C endpoint: mean survival time, dose: 500.0 mg/kg/injection, schedule: Q01DX001 (ip), vehicle: other) was 0 of 6.
For the compound `CC(C)(O)C#CC#CC(C)(C)O`, the survivor count (T/C endpoint: mean survival time, dose: 300.0 mg/kg/injection, schedule: Q01DX001 (ip), vehicle: saline with Tween-80) was 3 of 6.
`COc1cc(C)c(O)c(C[P+](c2ccccc2)(c2ccccc2)c2ccccc2)c1`: the survivor count under setting [5] is on record as 0 of 6; the survivor count under setting [6] was 0 of 6 and 1 of 6; the survivor count under setting [7] is 0 of 6.
For `O=S(=O)(O)SCC1=NCCCCN1`, the survivor count is given as 0 of 6 under setting [6] and 0 of 6 under setting [7].
Turning to `Cc1ccc2c(c1)N=C(Nc1ccccc1)N=S2(C)=O` (stereo not drawn), the survivor count by setting is: under setting [5], 3 of 6; (T/C endpoint: mean survival time, dose: 200.0 mg/kg/injection, schedule: Q01DX009 (ip), vehicle: saline with Tween-80) 1 of 10.
In the case of `C1CN2CCC1C1(C2)SSC2(CN3CCC2CC3)S1` (stereo not drawn), the survivor count under setting [1] is 0 of 6, the survivor count under setting [2] was 0 of 6 and the survivor count under setting [3] is given as 0 of 6.
With `C=CCOc1c(C)cc(C)cc1/C=C/C`, the survivor count under setting [8] is given as 1 of 6.
Same read-out and setting: with `COc1cc(/C=N\N=C\c2ccc(O)c(OC)c2)ccc1O` the figure was 5 of 6.
As for `O=C1C(Br)CCC1C(O)(C(F)(F)F)C(F)(F)F` (stereo not drawn), the survivor count under setting [7] was 0 of 6.
Regarding `COC(=O)C(=O)O`, under setting [8], the survivor count is reported as 5 of 6.
As for `Nc1ccn(C2OC(C(OC3OC(CO)C(O)C(N)C3O)C(O)C(O)C(O)C(O)CO)C(N)C(O)C2O)c(=O)n1` (stereo not drawn), the survivor count (T/C endpoint: mean survival time, dose: 0.8 mg/kg/injection, schedule: Q01DX005 (ip), vehicle: saline) was 1 of 6; the survivor count (T/C endpoint: mean survival time, dose: 1.6 mg/kg/injection, schedule: Q01DX005 (ip), vehicle: saline) was 0 of 6; the survivor count (T/C endpoint: mean survival time, dose: 3.2 mg/kg/injection, schedule: Q01DX005 (ip), vehicle: saline) is given as 0 of 6.
`CCCCC(=O)C1CN(C(C)(C)C)C1`: the survivor count (T/C endpoint: mean survival time, dose: 100.0 mg/kg/injection, schedule: Q01DX001 (ip), vehicle: saline with Tween-80) is listed as 0 of 6; the survivor count (T/C endpoint: mean survival time, dose: 200.0 mg/kg/injection, schedule: Q01DX001 (ip), vehicle: saline with Tween-80) was 0 of 6; the survivor count under setting [4] is recorded as 0 of 6.
Consider `CCC(=O)c1ccc2c(c1)N(CCCN1CCN(CCO)CC1)c1ccccc1S2`, for which the survivor count is recorded as 3 of 6 (T/C endpoint: mean survival time, dose: 50.0 mg/kg/injection, schedule: Q04DX003 (ip), vehicle: Klucel (hydroxypropylcellulose) (HPC)) and 4 of 6 (T/C endpoint: mean survival time, dose: 200.0 mg/kg/injection, schedule: Q04DX003 (ip), vehicle: Klucel (hydroxypropylcellulose) (HPC)).
For the compound `N=c1ccccn1CCO`, the survivor count under setting [9] was 0 of 6.
Take `OCC1OC(n2ccc3c2ncn2ncnc32)C(O)C1O` (stereo not drawn): the T/C (T/C endpoint: mean survival time, dose: 12.5 mg/kg/injection, schedule: Q01DX005 (ip), vehicle: water) is 127 % of control; the T/C (T/C endpoint: mean survival time, dose: 25.0 mg/kg/injection, schedule: Q01DX005 (ip), vehicle: water) was 133 and 141 % of control. The survivor count (T/C endpoint: mean survival time, dose: 50.0 mg/kg/injection, schedule: Q01DX005 (ip), vehicle: water) is reported as 4 of 4; the survivor count (T/C endpoint: mean survival time, dose: 100.0 mg/kg/injection, schedule: Q01DX005 (ip), vehicle: water) was 0 of 4 and 0 of 6; the survivor count under setting [10] is given as 0 of 4; the survivor count (T/C endpoint: mean survival time, dose: 400.0 mg/kg/injection, schedule: Q01DX005 (ip), vehicle: water) is listed as 0 of 4.
As for `O=c1nc2c(ncn2C2OC(CO)C(O)C2O)c(NCCc2ccccc2)[nH]1` (stereo not drawn), under setting [10], the T/C was 125 % of control [5 of 6 alive].
In the case of `O=c1[nH]cnc2c1ncn2C1CC(CO)C(O)OC1O` (stereo not drawn), the survivor count (T/C endpoint: mean survival time, dose: 400.0 mg/kg/injection, schedule: Q04DX002 (ip), vehicle: saline) was 0 of 3.
Turning to `COC(=O)C(Cc1ccc(N(CCCl)CCCl)cc1)N=NNc1nc[nH]c1C(N)=O` (stereo not drawn), where the note is “T/C endpoint: mean survival time, dose: 200.0 mg/kg/injection, schedule: Q01DX001 (ip), vehicle: steroid suspending solution”, the T/C was 127 % of control.
Regarding `C=CC1CC2C=CC1C2` (stereo not drawn) (tested in a mixture with another compound), the survivor count (T/C endpoint: mean survival time, dose: 322.0 mg/kg/injection, schedule: Q01DX009 (ip), vehicle: saline with Tween-80) is recorded as 3 of 6.
As for `CN(C)CCCN=c1c2ccccc2n(C)c2[nH]c(=O)n(C)c(=O)c12`, where the note is “T/C endpoint: median survival time, dose: 30.0 mg/kg/injection, schedule: Q01DX005 (ip), vehicle: saline”, the T/C was 125 % of control. The survivor count is, setting by setting: (T/C endpoint: median survival time, dose: 83.33 mg/kg/injection, schedule: Q01DX005 (ip), vehicle: saline) 5 of 6; (T/C endpoint: median survival time, dose: 240.0 mg/kg/injection, schedule: Q01DX005 (ip), vehicle: saline) 0 of 6.
Turning to `N#C/C(=C\c1c[nH]c2ccccc12)C(N)=O`, the survivor count (T/C endpoint: mean survival time, dose: 200.0 mg/kg/injection, schedule: Q01DX009 (ip), vehicle: other) was 6 of 6.
Regarding `CC(C)N(CCN(C)C(=O)C(O)(c1ccccc1)c1ccccc1)C(C)C`, the survivor count is, setting by setting: under setting [6], 2 of 3; under setting [7], 0 of 3.
In the case of `C/C(=N/NC(N)=S)c1ccc(NC(=O)C(Cl)Cl)cc1`, under setting [9], the survivor count is given as 0 of 6.
Take `CC1(c2ccccc2)C(C#N)C(=O)NC(=O)C1C#N` (stereo not drawn): the survivor count under setting [8] is 3 of 6.
On to `O=C(O)c1ccccc1SSc1ccccc1C(=O)O`, for which the survivor count under setting [7] is recorded as 1 of 6.
For the compound `C=CCOCC(O)C[As](=O)(O)c1ccc(Cl)cc1` (stereo not drawn), the survivor count (T/C endpoint: mean survival time, dose: 25.0 mg/kg/injection, schedule: Q04DX003 (ip), vehicle: saline with Tween-80) is 3 of 6.
As for `CC(C)NC(=O)C1CC2c3cccc4[nH]cc(c34)CC2N(C)C1` (stereo not drawn), the survivor count under setting [6] is listed as 0 of 6.
As to `CC(C)(C)NC(C1=CC(C)(C)c2ccccc2C1=O)c1ccccc1` (stereo not drawn), the survivor count (T/C endpoint: median survival time, dose: 400.0 mg/kg/injection, schedule: Q01DX009 (ip), vehicle: Klucel (hydroxypropylcellulose) (HPC)) is recorded as 1 of 6.
`Cc1cn2ccccc2c[n+]1=O`: the survivor count is recorded as 0 of 6 (T/C endpoint: mean survival time, dose: 100.0 mg/kg/injection, schedule: Q04DX003 (ip), vehicle: saline with Tween-80); 0 of 6 under setting [6]; 0 of 6 under setting [7].
